No constants are given. Whether binding was seen depends on the method and setting. In cells and extracts the contact can be indirect. A result given as binding can be weak or reduced; the word gives no strength. Where a sequence is shown, tags or fusion partners need not be part of it.
Molecular target: T1, YFP-EML4 full length (human) (UniProt Q9HC35)
T1 sequence: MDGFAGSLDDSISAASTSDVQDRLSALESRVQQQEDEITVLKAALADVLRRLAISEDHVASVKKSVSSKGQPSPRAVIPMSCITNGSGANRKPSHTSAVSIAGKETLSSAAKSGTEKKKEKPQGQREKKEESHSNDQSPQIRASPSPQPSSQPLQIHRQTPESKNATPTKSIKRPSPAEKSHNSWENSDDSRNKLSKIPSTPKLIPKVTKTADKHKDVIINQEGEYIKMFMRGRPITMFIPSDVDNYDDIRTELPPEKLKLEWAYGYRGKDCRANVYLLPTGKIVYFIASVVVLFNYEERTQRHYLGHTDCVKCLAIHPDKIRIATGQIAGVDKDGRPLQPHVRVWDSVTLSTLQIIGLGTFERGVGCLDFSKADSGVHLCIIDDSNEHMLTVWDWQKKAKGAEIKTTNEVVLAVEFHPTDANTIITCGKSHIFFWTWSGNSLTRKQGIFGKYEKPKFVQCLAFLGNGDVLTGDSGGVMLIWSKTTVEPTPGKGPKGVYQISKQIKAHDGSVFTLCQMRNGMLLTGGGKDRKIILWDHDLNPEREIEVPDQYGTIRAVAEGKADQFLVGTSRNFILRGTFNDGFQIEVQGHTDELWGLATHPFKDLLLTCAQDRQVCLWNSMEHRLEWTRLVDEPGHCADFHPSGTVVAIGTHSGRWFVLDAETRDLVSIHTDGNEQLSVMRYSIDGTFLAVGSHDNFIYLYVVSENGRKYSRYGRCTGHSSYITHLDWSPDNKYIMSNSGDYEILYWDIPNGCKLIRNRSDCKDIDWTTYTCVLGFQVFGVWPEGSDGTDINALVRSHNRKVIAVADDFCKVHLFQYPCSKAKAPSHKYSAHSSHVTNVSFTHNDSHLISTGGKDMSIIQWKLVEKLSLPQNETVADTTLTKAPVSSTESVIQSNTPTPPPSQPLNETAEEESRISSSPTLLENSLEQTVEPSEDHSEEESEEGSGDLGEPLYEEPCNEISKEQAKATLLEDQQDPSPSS
Assay: co-IP

By UniProt entry, the sequences of proteins in these tests, tags left out. Where a name states a change or a piece, a line headed by the entry shows the natural chain unless it says otherwise.
UniProt Q8TD19: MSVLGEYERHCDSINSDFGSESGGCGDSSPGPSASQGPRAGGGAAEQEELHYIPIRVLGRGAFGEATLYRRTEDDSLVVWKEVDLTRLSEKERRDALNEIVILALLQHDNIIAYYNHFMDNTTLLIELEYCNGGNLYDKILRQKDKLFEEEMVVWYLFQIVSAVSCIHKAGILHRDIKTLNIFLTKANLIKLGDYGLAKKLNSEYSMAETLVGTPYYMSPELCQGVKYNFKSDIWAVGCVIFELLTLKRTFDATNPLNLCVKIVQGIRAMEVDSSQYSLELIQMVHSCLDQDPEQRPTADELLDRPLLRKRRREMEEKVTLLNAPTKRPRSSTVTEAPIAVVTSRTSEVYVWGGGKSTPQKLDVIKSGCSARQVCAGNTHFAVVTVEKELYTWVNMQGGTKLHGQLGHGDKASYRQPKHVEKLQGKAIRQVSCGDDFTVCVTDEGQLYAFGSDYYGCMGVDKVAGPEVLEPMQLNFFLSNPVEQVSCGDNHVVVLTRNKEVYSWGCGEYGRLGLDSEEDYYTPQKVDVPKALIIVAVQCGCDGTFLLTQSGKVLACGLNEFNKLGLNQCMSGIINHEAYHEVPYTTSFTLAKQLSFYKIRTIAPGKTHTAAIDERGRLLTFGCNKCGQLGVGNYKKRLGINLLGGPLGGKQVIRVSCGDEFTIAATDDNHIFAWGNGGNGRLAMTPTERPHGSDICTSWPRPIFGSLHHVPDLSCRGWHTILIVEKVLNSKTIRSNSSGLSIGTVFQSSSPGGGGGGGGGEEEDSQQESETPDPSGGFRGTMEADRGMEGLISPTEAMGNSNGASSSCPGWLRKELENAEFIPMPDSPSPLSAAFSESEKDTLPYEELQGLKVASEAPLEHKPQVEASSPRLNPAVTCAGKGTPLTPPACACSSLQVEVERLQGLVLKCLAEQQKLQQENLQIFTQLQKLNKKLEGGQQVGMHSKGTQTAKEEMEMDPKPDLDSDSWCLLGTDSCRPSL

Substance: myc-NEK9-ΔRCC1, constitutively-activated mutant lacking the RCC1-like domain (from UniProt Q8TD19)
- binding: binds

From paper doi:10.1101/567305
